# Measured values as given in PubChem BioAssay AID2685 (National Center for Advancing Translational Sciences (NCATS), 2010).
# About 2,100 (0.66%) of roughly 320,000 compounds were called active. This list was built around the results that the source calls inconclusive (neither active nor inactive); the mix of calls is not that of the screen. The call rests on the fitted dose curve; in most records, active means well fitted inhibition curve with a large enough effect in the signal ratio, with a control signal flat (not every such curve was filed as active); inconclusive means small, poorly fitted or top-dose-only effect, or effect the other way, or a change in a side signal; inactive means flat fitted curve, though single readings scatter; the % refers to the signal ratio. Potencies of inconclusive entries are doubtful fits and often do not repeat.
# Assay: qHTS Assay for Lipid Storage Modulators in Drosophila S3 Cells
# Settings: BODIPY lipid droplet fluorescence, 18-24 h, cells fed with added oleic acid; lipid storage change, negative = inhibition: at 46.1 µM (top of the series) unless noted
# Outline: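 Drosophila S3 cells loaded with oleic acid (400 uM, as added) and compounds at several concentrations; lipid droplets imaged by 488-nm laser-scanning cytometry, 500–530 nm intensity and object ratio to cell channel. Percent activity normalized to 20 uM Triacsin C.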
# On the % scale 0 is the no-effect control and ±100 the full control effect; potency means the concentration at half of the fitted maximal effect.
Compound,Potency,"lipid storage change, negative = inhibition"
CN1C(=O)CSc2ccc(NC(=O)NCc3ccco3)cc21,"inconclusive: 0.082 µM [rising, full curve, poor fit]",
CN(C)S(=O)(=O)c1ccc(C(=O)NCc2ccccn2)cc1,,inconclusive: -22.8%
CCc1nc(NCc2ccccn2)c2oc3ccccc3c2n1,,inconclusive: -4.03%
CCNC(=O)CC1SC(=Nc2ccccc2C)N(C)C1=O (configuration not stated),,inactive
CCOc1ccc(OCCN2C(=O)NC3(CCCc4ccccc43)C2=O)cc1 (configuration not stated),,inconclusive: 24.5%
CCc1ccc(C(C)NC(=O)c2ccc3c(c2)OCO3)cc1 (configuration not stated),,inconclusive: 21.1%
COc1cccc(Nc2c3c(nc4c(-c5ccccc5)c(C)nn24)CCC3)c1,"inconclusive: 0.103 µM [rising, full curve, poor fit]",
Cc1ccc(S(=O)(=O)N2CCN(C(=O)COC(=O)C3CCC3)CC2)c(C)c1,"inconclusive: 6.51 µM [falling, single point]",
CCC1CCCCN1C(=O)c1cc(-c2ccc(Cl)c(Cl)c2)on1 (configuration not stated),"inconclusive: 29.1 µM [falling, single point]",
Cc1ccc(NC(=O)c2cc(S(=O)(=O)N3CCCCC3)c[nH]2)cc1F,,inconclusive: -15.3%
Nc1ccc(NC(=O)c2cccs2)c(Cl)c1,,inconclusive: 22.8%
O=C(c1ccc(S(=O)(=O)Nc2ccccc2F)cc1)N1CCCC1,,inconclusive
O=C(c1csc2c1CCCC2)N1CCCCC1,"inconclusive: 0.366 µM [falling, partial curve]",
CC(=O)Nc1ccc(S(=O)(=O)N(Cc2cc3ccc(C)cc3[nH]c2=O)CC2CCCO2)cc1 (configuration not stated),,inconclusive: 11.2%
Cc1ccc(-n2nnc3ccccc3c2=O)cc1C,"inconclusive: 5.8 µM [activator, partial curve]",
CCSc1ncnc2c1oc1ccccc12,"inconclusive: 3.66 µM [activator, full curve]",
Cc1ccc(S(=O)(=O)Nc2ccc(N3CCCCC3)cc2)cc1,,inconclusive: 15%
CCC(CO)Oc1cc(NC(=O)c2ccc(C)cc2)c2ncn(C(C)C)c2c1 (configuration not stated),,inconclusive: -9.18%
NC(=O)CC(NC(=O)Cc1cccc2ccccc12)c1ccc(N2CCc3ccccc3C2)c([N+](=O)[O-])c1 (configuration not stated),,inconclusive: 22.7%
CC(C(=O)N1CCCCC1)N(C)CC(=O)Nc1cccc(F)c1 (configuration not stated),"inconclusive: 0.0052 µM [falling, full curve, poor fit]",
COCCN(CCOC)c1nc(-c2ccc(Cl)cc2)nc2ccccc12,"inconclusive: 18.4 µM [falling, single point]",
Cc1ccc(CN2CCN(CC(=O)O)C2=O)cc1,,inconclusive: 3.33%
CCCc1cc(=O)oc2c3c(cc(OCC(=O)NCC4CCC(C(=O)O)CC4)c12)OC(C)(C)CC3 (configuration not stated),,inconclusive: 3.23%
CC(=O)c1ccc(OCC(=O)Nc2c(C)nn(-c3ccccc3)c2C)cc1,"inconclusive: 0.291 µM [activator, full curve, poor fit]",
Oc1[nH]c2ccccc2c1N=Nc1nc2ccccc2s1,"inconclusive: 6.51 µM [activator, single point]",
Clc1ccc(-c2nnc(-c3ccco3)nc2N2CCCCC2)cc1,,inconclusive: -57.3%

Compound,Potency,"lipid storage change, negative = inhibition"
C/C(=N\OC(=O)C1CC1)C1CC1c1ccc(F)cc1 (configuration not stated),,inconclusive: -49.5%
CC(C)C(NC(=O)c1ccco1)C(=O)OCC(=O)c1ccccc1 (configuration not stated),"inconclusive: 29.1 µM [activator, single point]",
Cc1cc(C)n(C(=O)N(c2ccccc2)c2ccccc2)n1,,inconclusive: 6.89%
O=C(c1cnn(C(=O)c2ccccc2)c1)c1ccccc1O,,inconclusive: 17%
O=C(C1CCN(S(=O)(=O)c2cccs2)CC1)N1CCCC(C(F)(F)F)C1 (configuration not stated),,inconclusive: 7.51%
COc1cc(S(=O)(=O)N2CCN(c3ccccc3)CC2)ccc1F,,inconclusive: -14.7%
COc1ccc(C(=O)Nc2nc3c(s2)Cc2cc(OC)ccc2-3)cc1,"inconclusive: 32.6 µM [falling, single point]",
O=Nc1ccc(NOC(=O)c2ccccc2Br)cc1,"inconclusive: 0.0052 µM [activator, full curve, poor fit]",
NC(=S)NN=C(c1ccccc1)c1ccccc1,"inconclusive: 29.1 µM [activator, single point]",
O=C(CNS(=O)(=O)c1cccc(Cl)c1)Nc1ccc(-c2nc3ccccc3s2)cc1,,inconclusive: -27.7%
CCCNc1nc2c(c(=O)n(C)c(=O)n2C)n1CCCc1ccccc1,,inactive
O=C(O)CCCCCCNC(=O)c1cncc(O)c1,,inconclusive: 35.3%
O=C(NC(Cc1ccccc1)C(=O)O)c1ccco1 (configuration not stated),,inactive
CCOc1cnc(-c2c(-c3c(F)cccc3Cl)noc2C)o1,,inconclusive: 19%
CCOC(=O)[C@H]1[C@H]2COc3cc(OC)ccc3[C@@H]2N2C(=O)c3cc(OC)ccc3NC(=O)[C@@]12C,,inactive
O=C(CSc1n[nH]c(-c2ccccc2)n1)Nc1ccccc1O,,inconclusive: 40.6%
CC1CCCN(CCC(=O)Nc2ccc(F)c(F)c2)C1 (configuration not stated),"inconclusive: 1.46 µM [activator, full curve, poor fit]",
CC(C)NC(=O)c1c(O)c2ccccc2[nH]c1=O,,inconclusive: 46.5%
Cn1c(=O)c2cc(S(=O)(=O)NC(Cc3ccccc3)C(=O)NCC3CCCO3)ccc2n(C)c1=O (configuration not stated),,inconclusive: 6.17%
CCOC(=O)c1c(CC(C)C)csc1NC(=O)COC(=O)c1cc(OC)c(OC)cc1[N+](=O)[O-],"inconclusive: 3.26 µM [falling, single point]",
Cc1ccc(-n2c(SCC(=O)Nc3ccc4c(c3)OCCO4)nnc2-c2ccco2)cc1,"inconclusive: 0.82 µM [activator, full curve]",
NS(=O)(=O)c1cccnc1Nc1c(Cl)cccc1Cl,,inconclusive: -153%
CCCC1(c2ccccc2)NC(=O)N(CC(=O)Nc2cc(C)on2)C1=O (configuration not stated),"inconclusive: 7.31 µM [falling, single point]",
COc1cccc(C(=O)NCCSc2ccc(F)cc2)c1,"inconclusive: 0.731 µM [falling, single point]",
Cc1cc2oc(=O)c3c(c2cc1OCc1nn[nH]n1)CCCC3,,inconclusive: 31.8%
Cc1c(C2OC(=O)C3(CCCCC3)C(=O)C2(C)C)c(=O)n(-c2ccccc2)n1C (configuration not stated),,inconclusive: 16.7%

# Another view of 20 compounds above.
Compound	Potency	lipid storage change, negative = inhibition
CCc1nc(NCc2ccccn2)c2oc3ccccc3c2n1		inconclusive: -4.03%
CCOc1ccc(OCCN2C(=O)NC3(CCCc4ccccc43)C2=O)cc1 (configuration not stated)		inconclusive: 24.5%
CCc1ccc(C(C)NC(=O)c2ccc3c(c2)OCO3)cc1 (configuration not stated)		inconclusive: 21.1%
Cc1ccc(S(=O)(=O)N2CCN(C(=O)COC(=O)C3CCC3)CC2)c(C)c1	inconclusive: 6.51 µM [falling, single point]	
CCC1CCCCN1C(=O)c1cc(-c2ccc(Cl)c(Cl)c2)on1 (configuration not stated)	inconclusive: 29.1 µM [falling, single point]	
Cc1ccc(NC(=O)c2cc(S(=O)(=O)N3CCCCC3)c[nH]2)cc1F		inconclusive: -15.3%
Nc1ccc(NC(=O)c2cccs2)c(Cl)c1		inconclusive: 22.8%
CC(=O)Nc1ccc(S(=O)(=O)N(Cc2cc3ccc(C)cc3[nH]c2=O)CC2CCCO2)cc1 (configuration not stated)		inconclusive: 11.2%
Cc1ccc(-n2nnc3ccccc3c2=O)cc1C	inconclusive: 5.8 µM [activator, partial curve]	
CCSc1ncnc2c1oc1ccccc12	inconclusive: 3.66 µM [activator, full curve]	
Cc1ccc(CN2CCN(CC(=O)O)C2=O)cc1		inconclusive: 3.33%
Oc1[nH]c2ccccc2c1N=Nc1nc2ccccc2s1	inconclusive: 6.51 µM [activator, single point]	
CC(C)C(NC(=O)c1ccco1)C(=O)OCC(=O)c1ccccc1 (configuration not stated)	inconclusive: 29.1 µM [activator, single point]	
O=C(C1CCN(S(=O)(=O)c2cccs2)CC1)N1CCCC(C(F)(F)F)C1 (configuration not stated)		inconclusive: 7.51%
COc1cc(S(=O)(=O)N2CCN(c3ccccc3)CC2)ccc1F		inconclusive: -14.7%
O=C(O)CCCCCCNC(=O)c1cncc(O)c1		inconclusive: 35.3%
CC1CCCN(CCC(=O)Nc2ccc(F)c(F)c2)C1 (configuration not stated)	inconclusive: 1.46 µM [activator, full curve, poor fit]	
Cn1c(=O)c2cc(S(=O)(=O)NC(Cc3ccccc3)C(=O)NCC3CCCO3)ccc2n(C)c1=O (configuration not stated)		inconclusive: 6.17%
NS(=O)(=O)c1cccnc1Nc1c(Cl)cccc1Cl		inconclusive: -153%
CCCC1(c2ccccc2)NC(=O)N(CC(=O)Nc2cc(C)on2)C1=O (configuration not stated)	inconclusive: 7.31 µM [falling, single point]	

# Further results follow.

Compound,Potency,"lipid storage change, negative = inhibition"
CC1(C)OC(c2ccccc2)=C/C(=C\C=N\NC(=O)c2ccncc2)O1,,inconclusive: 16.6%
O=C(COc1ccc(Cl)cc1Cl)N(Cc1ccco1)C1CCS(=O)(=O)C1 (configuration not stated),"inconclusive: 0.146 µM [falling, full curve, poor fit]",
COc1ccccc1-c1cc(C(=O)N/N=C/c2ccoc2)c2ccccc2n1,,inconclusive: 5.18%
Cc1cccc(CC(=O)N2CCOCC2)c1,"inconclusive: 4.11 µM [activator, full curve]",
CN(Cc1ccon1)C(=O)C1CCN(C2CCN(CCCc3ccccc3)CC2)CC1,,inconclusive: -48.7%
O=C1CSC(=S)N1Cc1cccnc1,"inconclusive: 1.64 µM [activator, partial curve]",
CCOC(=O)c1c(-c2ccccc2)oc2ccc(OCC)cc12,"inconclusive: 8.2 µM [activator, partial curve]",
Cc1cccc(OCCCn2c(CCNC(=O)C(C)C)nc3ccccc32)c1,"inconclusive: 29.1 µM [cytotoxic, single point]",
Cc1[nH]c2ccccc2c1C(=O)COC(=O)c1nccnc1N,,inconclusive: -21.6%
COc1cc(C2C(C#N)=C(N)Oc3c2c(-c2ccccc2)nn3-c2ccccc2)cc(OC)c1OC (configuration not stated),,inconclusive: 20.3%
O=C(Nc1ccccn1)c1cc2cc([N+](=O)[O-])ccc2s1,,inconclusive: 12.1%
COc1ccccc1NS(=O)(=O)c1cc(NC(=O)CCc2nc3ccccc3c(=O)[nH]2)ccc1C,"inconclusive: 0.92 µM [activator, full curve]",
CN1CCC/C1=C1/C(=O)N(c2ccccc2)N=C1NC(=O)Nc1cccc(Cl)c1,,inconclusive: -45.6%
CCOc1ccc(NC(=O)CN(C)C(=O)c2cccc(S(=O)(=O)N3CCCC3)c2)cc1OCC,,inconclusive
CCOC(=O)N1CCN(S(=O)(=O)c2ccc3c(c2)CCN3C(=O)CC)CC1,,inconclusive: 40.2%
COc1ccc(NC(=O)C2CCCO2)cc1Cl (configuration not stated),"inconclusive: 29.1 µM [falling, single point]",
COCCN(C(=O)C1CC1)c1nnc(-c2cccc(C)c2)s1,"inconclusive: 6.51 µM [activator, partial curve]",
CC(=O)Nc1ccc(SCC(=O)Nc2cc(C(C)(C)C)nn2-c2ccccc2)cc1,,inconclusive: 69%
CCn1ncc([N+](=O)[O-])c1C(=O)NC1CCCCC1,,inconclusive: 32.1%
COc1ccc(OC)c(S(=O)(=O)NCCOC23CC4CC(CC(C4)C2)C3)c1,,inconclusive: 6.15%
CC(C)CC(=O)Nc1ccc(S(=O)(=O)N2CCCC2)cc1,,inconclusive: 53.4%
CSc1ccc(C2C(C(=O)c3ccco3)=C(O)C(=O)N2c2nnc(SC)s2)cc1 (configuration not stated),active: 7.31 µM,
Brc1ccc(CSc2ncnc3nc[nH]c23)cc1,,inconclusive: -23.2%
CCOc1ccc(/C=N/NC(=O)c2ccc(F)cc2)cc1CN1CC2CC(C1)c1cccc(=O)n1C2 (configuration not stated),,inconclusive: -47.2%
O=C(Nc1ccc(-c2csc(Nc3ccccc3)n2)cc1)c1cc([N+](=O)[O-])cc(C(F)(F)F)c1,"inconclusive: 29.1 µM [cytotoxic, single point]",
